Measured values from PubChem BioAssay AID2685 (National Center for Advancing Translational Sciences (NCATS), 2010).
The list shows a part of the results. The main result of the screen is listed elsewhere. These columns were measured beside it and carry no call. The list favours compounds with an active or inconclusive main result. Words in brackets tell the shape of the fitted curve; partial curves, single points and poor fits give uncertain potencies.

Assay: qHTS Assay for Lipid Storage Modulators in Drosophila S3 Cells;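 on cell number change: cells counted by Cell Tracker Red CMTPX staining in the red channel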
Details: BODIPY lipid droplet fluorescence, 18-24 h; for cell number change: measured here: cell count max response, cells fed with added oleic acid
Procedure, shortened: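 Drosophila S3 cells loaded with oleic acid (400 uM, as added) and compounds at several concentrations; lipid droplets imaged by 488-nm laser-scanning cytometry, 500–530 nm intensity and object ratio to cell channel. Percent activity normalized to 20 uM Triacsin C.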

[1] = measured here: lipid fluorescence (Fed channel) AC50, cells fed with added oleic acid
[2] = measured here: cell number channel AC50, cells fed with added oleic acid

SMILES	cell number change [%]	AC50 [1]	AC50 [2]
Cc1cc(C)nc(Nc2n[nH]c(COc3ccccc3)n2)n1	8.47		
CCc1nnc(NC(=O)c2ccc(COc3ccccc3Cl)o2)s1	8.97		
Cc1cccc(N(C)C(=O)c2cc(S(=O)(=O)N3CCCC3)cn2C)c1	12.4		
CC1(C)Cc2c(cnn2-c2ccc(F)cc2)C(NC(=O)CCc2ccncc2)C1 (configuration not stated)	12.5	0.58 µM [falling, single point]	
COc1cc(OC)cc(-n2nnnc2SCC(=O)N2CCCC2)c1	-24.9	0.651 µM [falling, partial curve, poor fit]	
CCOc1ccc(N2C(=O)Cc3ccccc3C2=O)cc1		5.8 µM [falling, partial curve]	
CCCCOc1ccc(C(C)(O)CCN2CCOCC2)cc1 (configuration not stated)	-4.77		
CC(=O)NNc1cccc(Cl)n1	153	3.66 µM [rising, single point]	14.6 µM [rising, partial curve]
CCOC(=O)c1cn(Cc2cccc(C)c2)nn1		6.51 µM [rising, single point]	
CN=C1SC(CC(=O)NCCc2ccc(OC)c(OC)c2)C(=O)N1C (configuration not stated)	7.59	0.58 µM [rising, full curve]	
O=C(O)c1ccc(N/N=C/C=C/c2ccc([N+](=O)[O-])o2)cc1	4.62		0.103 µM [rising, full curve, poor fit]
Cc1ccc(-c2nc(C3CCCN(S(=O)(=O)c4ccc(C(C)(C)C)cc4)C3)no2)cc1 (configuration not stated)	26.9	0.00651 µM [falling, full curve, poor fit]	
CC(=O)OCCCCCCCCCCC[N+]1(C)CCCCC1	-4.58	0.731 µM [falling, full curve]	
O=C(CSc1nc2ncc(Cl)cc2[nH]1)Nc1ccccc1-c1ccccc1	-15.9	16.4 µM [falling, partial curve, poor fit]	
COc1ccc(N2CCN(c3ncnc4sc(C(=O)NCC5CCCO5)c(C)c34)CC2)cc1 (configuration not stated)	-13.2	5.62 µM [rising, single point]	0.651 µM [falling, full curve, poor fit]
CCN(C(=O)COC(=O)/C=C/c1ccccc1[N+](=O)[O-])C1CCS(=O)(=O)C1 (configuration not stated)	-10.1	0.92 µM [rising, full curve]	
O=C(CCn1nnc2ccccc2c1=O)N[C@@H](Cc1ccccc1)C(=O)O	10.9	0.58 µM [falling, partial curve]	0.651 µM [falling, single point]
COc1ccccc1CNC(=O)c1cc(-c2ccccc2)nn1Cc1cc(C)no1	-2.71	29.1 µM [falling, single point]	
CC(=O)Nc1ccc(S(=O)(=O)N(C)CC(=O)NC2=NCCS2)cc1	2.73	0.00461 µM [falling, full curve, poor fit]	
CC(C)CS(=O)(=O)C1=NN2C(=N)/C(=C\c3ccc(OC(=O)c4ccco4)cc3)C(=O)N=C2S1	22.7		
O=C(CSc1nccn1-c1ccc(Cl)cc1)Nc1ccc2c(c1)OCO2	-13.1	2.31 µM [falling, partial curve]	

Three structures already listed, arranged by length of the SMILES, high to low.
SMILES	cell number change [%]	AC50 [1]	AC50 [2]
CCN(C(=O)COC(=O)/C=C/c1ccccc1[N+](=O)[O-])C1CCS(=O)(=O)C1 (configuration not stated)	-10.1	0.92 µM [rising, full curve]	
Cc1cc(C)nc(Nc2n[nH]c(COc3ccccc3)n2)n1	8.47		
CC(=O)OCCCCCCCCCCC[N+]1(C)CCCCC1	-4.58	0.731 µM [falling, full curve]	

Next entries.

SMILES	cell number change [%]	AC50 [1]	AC50 [2]
CCOC(=O)N1CCC(NC(=O)c2cc3c(-c4ccc(Cl)cc4)nn(C)c3s2)CC1	-36.2	2.06 µM [falling, full curve]	2.06 µM [falling, full curve]
CCc1c(C)nc2cc(-c3cc(OC)cc(OC)c3)nn2c1N1CCCC1	-73.3		16.4 µM [falling, single point]
Clc1ccccc1CSC1=NCCCN1	16.6	29.1 µM [falling, single point]	
CCOc1ccc(Nc2nc(N)c3ccccc3n2)cc1	-17.9		
COc1ccc(Nc2nccc(OC)c2C#N)cc1	15	6.51 µM [falling, single point]	1.64 µM [falling, partial curve]
O=c1c(Cl)c(Cl)cnn1Cc1ccc(F)cc1	2.45	1.64 µM [falling, partial curve]	
O=C(CCC(=O)N1CCOc2ccccc21)NC1CCCCCC1	24.2	18.4 µM [rising, single point]	
OCc1cc(CO)c(O)c(CCc2ccccc2)n1	-0.117	0.00461 µM [rising, full curve, poor fit]	
CSc1cccc(NC(=S)N(CCN(C)C)C(C)c2ccncc2)c1 (configuration not stated)	-9.53	20.6 µM [rising, single point]	
CC1=CCP(=O)(c2ccccc2)C1 (configuration not stated)	-5.24	23.1 µM [falling, single point]	
CCOc1ccccc1CN1CCC(n2nccc2NC(=O)CCc2ccccc2)CC1	58.1	29.1 µM [rising, single point]	18.4 µM [rising, single point]
CC(C)NCC(O)Cn1c2c(c3ccccc31)CCc1c-2cnn1-c1ccccc1 (configuration not stated)	-27.8	16.4 µM [falling, single point]	
COc1ccc(N2C(=O)CC(Sc3nnc(-c4ccccc4)o3)C2=O)cc1 (configuration not stated)	-67.6	29.1 µM [falling, single point]	29.1 µM [falling, single point]
O=C(c1ccc(Cn2cc(Br)cn2)cc1)N1CCN(c2ccccc2)CC1			3.66 µM [rising, single point]
CC(=O)N1CCCN(Cc2cn(-c3cc(C)ccc3C)nc2-c2ccccc2)CC1	-5.45		0.651 µM [falling, full curve, poor fit]
CCOC(=O)C(Sc1ncn[nH]1)c1ccccc1 (configuration not stated)	-7.31	0.0058 µM [falling, full curve, poor fit]	
O=C1OCCN1C(=O)[C@H]1[C@H](c2ccc(F)cc2)C(c2ccc(F)cc2)=NN1c1ccc(Br)cc1	-2.27	29.1 µM [rising, single point]	
O=C(CC1CCCCC1)Nc1ncn[nH]1	14	5.8 µM [falling, partial curve]	
CN(C)C(=O)N1CCC(C(=O)NCc2ccc(F)cc2)CC1	-2.98		0.103 µM [falling, single point]
COc1ccc(CN2CCc3ccccc3C2)c(OC)c1OC	-127		23.1 µM [falling, single point]
CCOc1ccc(NC(=O)Nc2cc(C)on2)cc1	6.88	10.3 µM [rising, partial curve]	

SMILES	cell number change [%]	AC50 [1]	AC50 [2]
COc1ccc(C)cc1NC(=O)c1cnc2sccn2c1=O		0.13 µM [rising, full curve, poor fit]	
Cc1cc(C)cc(NC(=O)CS(=O)(=O)c2cccc3nsnc23)c1	24.6		
CC(=O)Nc1ccc(NC(=O)c2cc(S(=O)(=O)N3CCCCC3)ccc2C)cc1	29	16.4 µM [rising, partial curve]	
COc1cccc(CC(NC(C)=O)C(=O)NC2CCN(C(=O)C3CCCCC3)CC2)c1OC (configuration not stated)	3.23	0.82 µM [rising, single point]	
CCC(=O)NCCCc1nc2ccccc2n1Cc1ccccc1F		6.51 µM [falling, single point]	
COc1ccc(S(=O)(=O)N2CCCCCC2)cc1C(=O)N(C)Cc1cccs1	-0.879	20.6 µM [falling, single point]	
O=C(N/N=C/c1ccc([N+](=O)[O-])o1)c1ccncc1	-24.6	16.4 µM [falling, partial curve]	
O=C(O/N=C\c1ccc(N2CCOCC2)c([N+](=O)[O-])c1)c1ccc(F)cc1	-12.6	0.731 µM [rising, full curve, poor fit]	
Cc1cccc(C2Nc3cccc4cccc(c34)N2)c1	-7.21	0.58 µM [falling, single point]	
O=C(CNC(=O)c1ccc(F)cc1)NCc1ccccn1	-6.32	1.3 µM [rising, partial curve]	
Cc1ccc(-c2n[nH]c(=S)n2/N=C/c2ccc(C)s2)cc1	-47.5	25.9 µM [falling, partial curve]	23.1 µM [falling, partial curve]
CCCCC(=O)N(c1ccc(OC)cc1)C1C=CS(=O)(=O)C1 (configuration not stated)		0.116 µM [falling, full curve, poor fit]	
CN1CCN(CC(=O)Nc2ccc(S(=O)(=O)N(C)C)cc2)CC1	-31.8	29.1 µM [falling, single point]	29.1 µM [falling, single point]
Cc1nc2ccccc2nc(C)c1=NOCc1ccccc1Cl	8.21	8.2 µM [rising, partial curve]	
CC1CCN(C2(O)C(=O)Nc3ccc(Cl)cc32)CC1 (configuration not stated)	13.2	18.4 µM [rising, single point]	
O=C(c1ccc(=O)[nH]c1)N1CCN(S(=O)(=O)c2ccccc2)CC1		8.2 µM [falling, partial curve]	
CCN(CC(=O)Nc1ccccc1OC)C(=O)c1cc(-c2ccccc2)nn1-c1ccccc1		4.61 µM [falling, single point]	3.66 µM [falling, partial curve]
CC(Sc1nnc(-c2cc3ccccc3o2)n1-c1ccccc1)C(=O)O (configuration not stated)	-24.4	3.26 µM [falling, single point]	2.91 µM [falling, single point]
O=C(c1ccc(-c2ccc([N+](=O)[O-])cc2)o1)N1CCCC(C(F)(F)F)C1 (configuration not stated)			0.731 µM [rising, full curve]
